Source: US11365200B2, “ATF3 induction compounds” (TAIPEI MEDICAL UNIVERSITY, priority 2017, dated 2022)

Assay: Animal model for obesity (45% high fat diet)
Format: in vivo
Conditions: HFD-fed WT mice

| Structure (SMILES) | food intake (0.5 mg/kg/day or 1 mg/kg/day i.p., FIG. 5A right) | food intake (1 or 10 mg/kg/day, FIG. 6B) |
| --- | --- | --- |
| C[C@@H]1Oc2c(c(=O)oc3c2ccc2ccccc23)[C@H]1C [ST32da, (1R,2S)-1,2-dimethyl-1H-benzo[h]furo[3,2-c]chromen-11(2H)-one] | without affecting their food intake | – |
| C[C@@H]1c2c(c3ccc4ccccc4c3oc2=O)O[C@@H]1C [ST32db, (1R,2R)-1,2-dimethyl-1H-benzo[h]furo[3,2-c]chromen-11(2H)-one] | – | without affecting their food intake |
